Source: PubChem BioAssay AID1259254 (NCATS, 2017)

- Assay: 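Genome-wide screen for genes that prevent DNA re-replication in cancer cells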 (primary screen)
- System: human HCT116 colorectal cancer cells
- Reagents: single siRNA against human genes
- Duration: 3 days
- Measurement: 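Nuclei stained with Hoechst and imaged; cell-cycle phase assigned by DNA content; G2 share scaled per plate, non-targeting siRNA 0%, GMNN siRNA 100%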
- Reading the numbers: G2 robust z-score: higher = more G2 cells, more excess DNA replication
- Active means: 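An siRNA counts as active if its G2 robust z-score lies at least 5 MADs above the screen median; here such calls match roughly 38% of GMNN control or more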
The whole screen tested about 59,000 reagents; this is a part drawn at random. About 1,550 of all reagents (2.6%) count as active. 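G2 share is only a proxy for re-replication; each gene was hit by three separate siRNAs, and active genes were retested.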 The numbers tell different reagents against one gene apart. Not all columns of the deposit are shown. No sequences are given here. The record does not give: the amount of reagent.

EGLN2 #1 | G2 robust z-score = -0.475; Outcome = inactive
EGLN2 #2 | G2 robust z-score = 0.0284; Outcome = inactive
EGLN2 #3 | G2 robust z-score = 0.796; Outcome = inactive
TMEM132D #1 | G2 robust z-score = -0.452; Outcome = inactive
TMEM132D #2 | G2 robust z-score = 0.281; Outcome = inactive
TMEM132D #3 | G2 robust z-score = -0.807; Outcome = inactive
REPS2 #1 | G2 robust z-score = -0.657; Outcome = inactive
REPS2 #2 | G2 robust z-score = 0.615; Outcome = inactive
REPS2 #3 | G2 robust z-score = -0.0301; Outcome = inactive
MRPL57 #1 | G2 robust z-score = -0.523; Outcome = inactive
MRPL57 #2 | G2 robust z-score = -0.189; Outcome = inactive
MRPL57 #3 | G2 robust z-score = 1.13; Outcome = inactive

Targets above whose target name begins with M or m:
MRPL57 #1 | G2 robust z-score = -0.523; Outcome = inactive
MRPL57 #2 | G2 robust z-score = -0.189; Outcome = inactive
MRPL57 #3 | G2 robust z-score = 1.13; Outcome = inactive
